# “And” between values parts separate entries of the source, which are not always exact repeats. Identical values can stand only once. Some of the results follow. The main result of the screen is listed elsewhere. These columns were measured beside it and carry no call. Compounds called inactive in the main read-out are mostly missing here. Potencies come from curve fits of mixed quality, noted in brackets.
# Experiment: Cell signaling CRE-BLA (Fsk stim)
# Details: CHO CRE-bla reporter (cAMP response element driving beta-lactamase), forskolin EC10, beta-lactamase ratio; measured here: 460 nm blue channel
# Outline: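 CRE-bla CHO reporter cells treated with compound titration plus EC10 NKH 477 (water-soluble forskolin), incubated 3 h at 37 °C; CCF4 loading 2 h at room temperature, 460/530 nm emission ratio read, AC50 values derived for positive or negative modulators.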
row,SMILES,AC50
1,COc1ccccc1N1CCN(C(=O)CCn2c(=O)[nH]c3ccsc3c2=O)CC1,"0.398 µM [falling, partial curve]"
2,Cc1cc(C)cc(N(CCC#N)C(=O)CSc2nc3nc(C)cc(C)n3n2)c1,"10 µM [rising, partial curve]"
3,Cc1cccc(CNc2ncnc3ccc(-c4ccoc4)cc23)c1,"0.0631 µM [falling, full curve]"
4,Cc1cccn2c(=O)c3cc(C#N)c(=O)n(Cc4cccnc4)c3nc12,"10 µM [rising, partial curve]"
5,Cc1oc(-c2cccs2)nc1CS(=O)CC(=O)NCCc1ccccc1 (centres undefined),"15.8 µM [falling, partial curve]"
6,CSc1cccc(NC(=O)C2CCN(S(=O)(=O)c3ccc(F)cc3)CC2)c1,"10 µM [falling, single point]"
7,CCCc1nc(NCc2ccco2)c(C#N)c2c1COC(C)(C)C2,"1.26 µM [rising, partial curve]"
8,COc1ccccc1-c1cc(C(F)(F)F)nc(S(=O)(=O)CCCC(=O)NC(C)C)n1,"2 µM [falling, full curve, poor fit]"
9,CCCc1ncc(C(O)c2cccc3ccccc23)n1C (centres undefined),"0.00398 µM [falling, full curve, poor fit]"
10,CCOP(C)(=O)C1(C(=O)OCc2ccccc2)CC1 (centres undefined),"1 µM [falling, full curve]"
11,COc1ccc(OC)c(NC=C2C(=O)OC3(CCCCC3)OC2=O)c1,"12.6 µM [rising, partial curve]"
12,COc1cc2c(C(=O)NCc3ccccn3)cn(CC(C)C)c(=O)c2cc1OC,"5.01 µM [rising, partial curve]"
13,Nc1ccc(C2CCCc3nonc32)c2nonc12 (centres undefined),"0.398 µM [falling, full curve, poor fit]"
14,CCCCCn1c(Br)nc2c1c(=O)n(CC(N)=O)c(=O)n2C,"3.16 µM [falling, partial curve, poor fit]"
15,CCOc1ccc(OCc2ccc(C(=O)Nc3ccc(Cl)cn3)o2)cc1,"25.1 µM [rising, single point]"
16,O=c1c(-c2ccccc2)nc2cnc(N3CCOCC3)nc2n1C[C@H]1CCCO1,"2.51 µM [rising, full curve]"
17,CC1CCC(NC(=O)c2ccc(CS(=O)(=O)Cc3ccccc3F)o2)CC1 (centres undefined),"0.0501 µM [rising, full curve]"
18,Cc1cc(C)c2c(C)nn(C3CCCCC3)c2n1,"10 µM [rising, partial curve]"
19,COc1cccc(-c2nc(Nc3ccncc3)c3ccccc3n2)c1,"3.98 µM [rising, full curve]"
20,O=C(c1cc2nc(-c3ccco3)cc(C(F)(F)F)n2n1)N1CCCCCC1,"10 µM [rising, partial curve]"
21,CCOc1cc(C(=O)NC)cc(OCC)c1OCC,"3.98 µM [falling, single point]"
22,COc1ccc(-c2nc(CCNC(=O)c3ccco3)cs2)cc1OC,"2 µM [rising, full curve]"
23,CC(C)(C)c1ccc(S(=O)(=O)/C=C\C#N)cc1,"25.1 µM [falling, partial curve] and 3.98 µM [falling, full curve]"

row,SMILES,AC50
1,c1ccc(CCNC2=NCCCS2)cc1,"0.1 µM [falling, single point]"
2,O=C(c1cccs1)n1cc(C(=S)N2CCOCC2)c2ccccc21,"1 µM [falling, single point]"
3,CC(C)C(=O)Nc1nnc(Cc2ccccc2)s1,"0.398 µM [rising, partial curve]"
4,CC1(C)NC(=O)N(CC(O)COc2ccc(-c3ccc(C#N)cc3)cc2)C1=O (centres undefined),"0.1 µM [falling, single point]"
5,COc1ccc(OC(C)=O)c(C2c3cc(OC)c(OC)cc3CCN2C(C)=O)c1 (centres undefined),"10 µM [rising, single point]"
6,O=C(CN1C(=O)CSC1=O)Nc1ccc2c(c1)OCCO2,"25.1 µM [falling, single point]"
7,Cc1cc(=O)n2nc(N3CCC(C(=O)N4CCN(Cc5ccccc5)CC4)CC3)sc2n1,"25.1 µM [rising, single point]"
8,CCOc1ccccc1Oc1coc2cc(O)ccc2c1=O,"0.316 µM [rising, full curve]"
9,COC(=O)c1ccccc1NC(=O)c1ccco1,"10 µM [rising, partial curve]"
10,COc1cc(C)c(S(=O)(=O)Nc2ccc(CC(=O)O)cc2)cc1C,"0.2 µM [falling, full curve]"
11,CCCC(=O)Nc1cc(OCC)c(NC(=O)NC2CCCCC2)cc1OCC,"6.31 µM [falling, single point]"
12,OC(c1ccccc1)c1nc2ccccc2s1 (centres undefined),"0.00631 µM [falling, full curve, poor fit]"
13,O=C(Nc1ccc(-c2nc3ccccc3o2)c(O)c1)c1cc(-n2cnnc2)ccc1Cl,"15.8 µM [rising, partial curve]"
14,COc1ccccc1NC(=O)C1CCN(c2ncccn2)CC1,"0.00398 µM [falling, full curve]"
15,Cc1ccsc1C(=O)OCC(=O)Nc1sccc1C(N)=O,"2 µM [rising, partial curve]"
16,Cc1cccc(NC(=O)c2ccccn2)c1C,"12.6 µM [falling, partial curve]"
17,Cc1cccc(OCCCC(=O)O)c1,"0.1 µM [rising, single point]"
18,COC(=O)CSc1nnc(-c2ccco2)n1Cc1ccco1,"5.01 µM [falling, single point]"
19,Brc1ccccc1Cn1c(-c2cncs2)nc2ccccc21,"3.16 µM [rising, partial curve]"
20,O=C(c1ccco1)N1CCN(c2ccc(Cl)c(Cl)c2)CC1,"3.98 µM [falling, full curve]"
21,Cn1c(=O)c2c(ncn2Cc2cc(-c3ccccc3)no2)n(C)c1=O,"7.94 µM [rising, partial curve]"
22,Cc1ccsc1C(=O)OCC(=O)c1cc(C)n(CC2CCCO2)c1C (centres undefined),"0.0631 µM [rising, full curve, poor fit]"
23,CN(C)c1ccc(/C=C/C(O)=C2/C(=O)N(C)C3(C)CC2c2ccccc2O3)cc1 (centres undefined),"12.6 µM [rising, partial curve]"

row,SMILES,AC50
1,CCOC(=O)N1CCN(c2cc(NCCC(=O)O)c3c4c(onc24)-c2ccccc2C3=O)CC1,"20 µM [rising, single point]"
2,COC(=O)C1CCC(C)(C(=O)Nc2ccccc2)C1(C)C (centres undefined),"0.0158 µM [falling, partial curve]"
3,COc1ccc2cc(CN(Cc3ccco3)Cc3nnnn3C3CCCCC3)c(=O)[nH]c2c1,"25.1 µM [rising, single point]"
4,Cc1cccc(NC(=O)c2cc3n(n2)C(C(F)(F)F)CC(c2ccc4c(c2)OCO4)N3)c1 (centres undefined),"12.6 µM [falling, partial curve]"
5,Cn1nc(-c2ccccc2)c2nc3ccccc3nc21,"3.98 µM [rising, partial curve]"
6,COc1ccccc1-c1ccc2ncnc(N(C)Cc3ccco3)c2c1,"3.98 µM [falling, single point]"
7,Cn1cnc2c1c(=O)n(Cc1ccccc1)c(=O)n2C,"7.94 µM [rising, partial curve]"
8,CCOc1ccccc1NC(=O)Cn1nnc(-c2ccc(OCC)c(OCC)c2)n1,"1.58 µM [rising, full curve]"
9,O=c1c(CCc2ccccc2)nc2cnc(N3CCNCC3)nc2n1Cc1cccs1,"12.6 µM [rising, partial curve]"
10,CCOC(=O)N1CCN(C(=O)c2ccc3c(=O)n(-c4ccc(OC)cc4OC)c(=S)[nH]c3c2)CC1,"0.126 µM [falling, full curve]"
11,Cc1cccc(-n2nnc(C(=O)NC3CCCc4ccccc43)c2N)c1 (centres undefined),"3.98 µM [falling, single point]"
12,CCN1C(=O)c2ccccc2S(=O)c2ccc(C(=O)NC3CC3)cc21 (centres undefined),"12.6 µM [rising, single point]"
13,CCOC(=O)NC(Nc1nnc(SCC)s1)(C(F)(F)F)C(F)(F)F,"0.631 µM [falling, full curve]"
14,O=C1CN(CC(=O)N2CCOCC2)c2ccccc2O1,"0.0631 µM [falling, full curve]"
15,Cc1ccc(-n2nc3ccc(N)cc3n2)cc1,"10 µM [rising, partial curve]"
16,O=C1N=C(c2ccccc2)C(c2ccccc2)N1 (centres undefined),"1.58 µM [rising, partial curve]"
17,Cn1c(SCc2nc3ccccc3c(=O)[nH]2)nnc1-c1ccco1,"25.1 µM [rising, single point]"
18,Cc1onc(-c2ccccc2)c1C(=O)Nc1nc(-c2cc(F)ccc2F)cs1,"2.51 µM [falling, partial curve]"
19,CCOC(=O)c1c(N)n(CCOC(=O)c2cccs2)c2nc3ccccc3nc12,"12.6 µM [rising, partial curve]"
20,CC[C@H]1C(=O)OC[C@@H]1Cc1cncn1C,"5.01 µM [falling, full curve, poor fit]"
21,C=CCn1c(=O)/c(=C/c2cc(OC)c(OC)c(OC)c2)s/c1=C(/C#N)c1nc2ccccc2n1C,"0.794 µM [rising, full curve]"
22,COc1ccc(Oc2ncc3ncc(=O)n(Cc4cccc(OC)c4)c3n2)cc1,"12.6 µM [rising, partial curve]"
23,C=CCN1C(c2ccccc2)=CS/C1=C(\C#N)c1nnc2n1CCCCC2,"5.01 µM [falling, single point]"
